Measured values reported in PMC5432272.
No constants are given. Whether binding was seen depends on the method and setting. Binding can be weak; no strength is given. Sequences can lack the tags named with a protein. For some assays here: Binding seen in cells or lysates may run through a third protein.

T1: Myc-GGA3 (human) (UniProt Q9NZ52)
T1 sequence: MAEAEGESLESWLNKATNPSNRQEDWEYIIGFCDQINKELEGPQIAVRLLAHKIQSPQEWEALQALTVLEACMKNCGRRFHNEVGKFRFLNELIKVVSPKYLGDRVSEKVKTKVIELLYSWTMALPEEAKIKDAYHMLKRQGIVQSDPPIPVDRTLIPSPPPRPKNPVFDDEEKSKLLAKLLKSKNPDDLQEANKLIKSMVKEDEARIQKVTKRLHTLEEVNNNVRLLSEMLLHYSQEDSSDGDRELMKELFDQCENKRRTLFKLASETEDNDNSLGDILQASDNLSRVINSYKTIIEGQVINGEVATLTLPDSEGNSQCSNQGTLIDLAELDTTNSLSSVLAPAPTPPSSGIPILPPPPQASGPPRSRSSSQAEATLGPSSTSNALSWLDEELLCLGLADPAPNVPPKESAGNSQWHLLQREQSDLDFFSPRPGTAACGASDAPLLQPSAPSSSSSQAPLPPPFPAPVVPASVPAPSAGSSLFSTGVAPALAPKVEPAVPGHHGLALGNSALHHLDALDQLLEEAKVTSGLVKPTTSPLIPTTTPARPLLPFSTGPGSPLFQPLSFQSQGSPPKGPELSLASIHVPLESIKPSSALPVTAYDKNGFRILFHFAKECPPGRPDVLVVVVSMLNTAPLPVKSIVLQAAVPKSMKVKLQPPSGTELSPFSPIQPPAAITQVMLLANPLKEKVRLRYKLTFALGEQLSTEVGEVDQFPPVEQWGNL

T2: Myc-GGA1 (human) (UniProt Q9UJY5)
T2 sequence: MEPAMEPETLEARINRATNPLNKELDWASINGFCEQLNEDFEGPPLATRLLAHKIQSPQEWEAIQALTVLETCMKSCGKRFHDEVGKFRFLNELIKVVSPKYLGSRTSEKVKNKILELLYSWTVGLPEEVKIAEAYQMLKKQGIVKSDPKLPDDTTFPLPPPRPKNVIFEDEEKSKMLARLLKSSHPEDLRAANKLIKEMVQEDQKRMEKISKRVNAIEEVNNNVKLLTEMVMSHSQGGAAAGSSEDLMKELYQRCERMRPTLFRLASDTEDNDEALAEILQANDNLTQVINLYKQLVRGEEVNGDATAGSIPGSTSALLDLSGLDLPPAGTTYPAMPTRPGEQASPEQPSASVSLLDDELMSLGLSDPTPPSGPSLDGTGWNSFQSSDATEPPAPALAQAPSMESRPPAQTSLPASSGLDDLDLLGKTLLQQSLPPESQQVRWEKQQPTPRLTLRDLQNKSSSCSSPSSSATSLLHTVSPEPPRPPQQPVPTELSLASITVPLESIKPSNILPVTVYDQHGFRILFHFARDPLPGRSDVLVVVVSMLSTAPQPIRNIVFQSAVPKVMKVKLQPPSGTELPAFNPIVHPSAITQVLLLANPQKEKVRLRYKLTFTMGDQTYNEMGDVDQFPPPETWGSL

T3: GST-GGA3 VHS domain (human) (UniProt Q9NZ52)
T3 sequence: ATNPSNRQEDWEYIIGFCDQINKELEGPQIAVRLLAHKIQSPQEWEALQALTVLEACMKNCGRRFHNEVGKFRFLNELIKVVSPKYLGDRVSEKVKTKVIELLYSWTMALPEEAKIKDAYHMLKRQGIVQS

B1: 6xHis-tagged GGA1 (protein, UniProt Q9UJY5-1 1-639)
chain: MEPAMEPETLEARINRATNPLNKELDWASINGFCEQLNEDFEGPPLATRLLAHKIQSPQEWEAIQALTVLETCMKSCGKRFHDEVGKFRFLNELIKVVSPKYLGSRTSEKVKNKILELLYSWTVGLPEEVKIAEAYQMLKKQGIVKSDPKLPDDTTFPLPPPRPKNVIFEDEEKSKMLARLLKSSHPEDLRAANKLIKEMVQEDQKRMEKISKRVNAIEEVNNNVKLLTEMVMSHSQGGAAAGSSEDLMKELYQRCERMRPTLFRLASDTEDNDEALAEILQANDNLTQVINLYKQLVRGEEVNGDATAGSIPGSTSALLDLSGLDLPPAGTTYPAMPTRPGEQASPEQPSASVSLLDDELMSLGLSDPTPPSGPSLDGTGWNSFQSSDATEPPAPALAQAPSMESRPPAQTSLPASSGLDDLDLLGKTLLQQSLPPESQQVRWEKQQPTPRLTLRDLQNKSSSCSSPSSSATSLLHTVSPEPPRPPQQPVPTELSLASITVPLESIKPSNILPVTVYDQHGFRILFHFARDPLPGRSDVLVVVVSMLSTAPQPIRNIVFQSAVPKVMKVKLQPPSGTELPAFNPIVHPSAITQVLLLANPQKEKVRLRYKLTFTMGDQTYNEMGDVDQFPPPETWGSL
B2: 6xHis-tagged GGA3 (protein, UniProt Q9NZ52-1 1-723)
chain: MAEAEGESLESWLNKATNPSNRQEDWEYIIGFCDQINKELEGPQIAVRLLAHKIQSPQEWEALQALTVLEACMKNCGRRFHNEVGKFRFLNELIKVVSPKYLGDRVSEKVKTKVIELLYSWTMALPEEAKIKDAYHMLKRQGIVQSDPPIPVDRTLIPSPPPRPKNPVFDDEEKSKLLAKLLKSKNPDDLQEANKLIKSMVKEDEARIQKVTKRLHTLEEVNNNVRLLSEMLLHYSQEDSSDGDRELMKELFDQCENKRRTLFKLASETEDNDNSLGDILQASDNLSRVINSYKTIIEGQVINGEVATLTLPDSEGNSQCSNQGTLIDLAELDTTNSLSSVLAPAPTPPSSGIPILPPPPQASGPPRSRSSSQAEATLGPSSTSNALSWLDEELLCLGLADPAPNVPPKESAGNSQWHLLQREQSDLDFFSPRPGTAACGASDAPLLQPSAPSSSSSQAPLPPPFPAPVVPASVPAPSAGSSLFSTGVAPALAPKVEPAVPGHHGLALGNSALHHLDALDQLLEEAKVTSGLVKPTTSPLIPTTTPARPLLPFSTGPGSPLFQPLSFQSQGSPPKGPELSLASIHVPLESIKPSSALPVTAYDKNGFRILFHFAKECPPGRPDVLVVVVSMLNTAPLPVKSIVLQAAVPKSMKVKLQPPSGTELSPFSPIQPPAAITQVMLLANPLKEKVRLRYKLTFALGEQLSTEVGEVDQFPPVEQWGNL
B3: Myc-GGA1 (protein, UniProt Q9UJY5-1 1-639)
chain: MEPAMEPETLEARINRATNPLNKELDWASINGFCEQLNEDFEGPPLATRLLAHKIQSPQEWEAIQALTVLETCMKSCGKRFHDEVGKFRFLNELIKVVSPKYLGSRTSEKVKNKILELLYSWTVGLPEEVKIAEAYQMLKKQGIVKSDPKLPDDTTFPLPPPRPKNVIFEDEEKSKMLARLLKSSHPEDLRAANKLIKEMVQEDQKRMEKISKRVNAIEEVNNNVKLLTEMVMSHSQGGAAAGSSEDLMKELYQRCERMRPTLFRLASDTEDNDEALAEILQANDNLTQVINLYKQLVRGEEVNGDATAGSIPGSTSALLDLSGLDLPPAGTTYPAMPTRPGEQASPEQPSASVSLLDDELMSLGLSDPTPPSGPSLDGTGWNSFQSSDATEPPAPALAQAPSMESRPPAQTSLPASSGLDDLDLLGKTLLQQSLPPESQQVRWEKQQPTPRLTLRDLQNKSSSCSSPSSSATSLLHTVSPEPPRPPQQPVPTELSLASITVPLESIKPSNILPVTVYDQHGFRILFHFARDPLPGRSDVLVVVVSMLSTAPQPIRNIVFQSAVPKVMKVKLQPPSGTELPAFNPIVHPSAITQVLLLANPQKEKVRLRYKLTFTMGDQTYNEMGDVDQFPPPETWGSL
B4: Myc-GGA3 (protein, UniProt Q9NZ52-1 1-723)
chain: MAEAEGESLESWLNKATNPSNRQEDWEYIIGFCDQINKELEGPQIAVRLLAHKIQSPQEWEALQALTVLEACMKNCGRRFHNEVGKFRFLNELIKVVSPKYLGDRVSEKVKTKVIELLYSWTMALPEEAKIKDAYHMLKRQGIVQSDPPIPVDRTLIPSPPPRPKNPVFDDEEKSKLLAKLLKSKNPDDLQEANKLIKSMVKEDEARIQKVTKRLHTLEEVNNNVRLLSEMLLHYSQEDSSDGDRELMKELFDQCENKRRTLFKLASETEDNDNSLGDILQASDNLSRVINSYKTIIEGQVINGEVATLTLPDSEGNSQCSNQGTLIDLAELDTTNSLSSVLAPAPTPPSSGIPILPPPPQASGPPRSRSSSQAEATLGPSSTSNALSWLDEELLCLGLADPAPNVPPKESAGNSQWHLLQREQSDLDFFSPRPGTAACGASDAPLLQPSAPSSSSSQAPLPPPFPAPVVPASVPAPSAGSSLFSTGVAPALAPKVEPAVPGHHGLALGNSALHHLDALDQLLEEAKVTSGLVKPTTSPLIPTTTPARPLLPFSTGPGSPLFQPLSFQSQGSPPKGPELSLASIHVPLESIKPSSALPVTAYDKNGFRILFHFAKECPPGRPDVLVVVVSMLNTAPLPVKSIVLQAAVPKSMKVKLQPPSGTELSPFSPIQPPAAITQVMLLANPLKEKVRLRYKLTFALGEQLSTEVGEVDQFPPVEQWGNL

Key:
Myc-GGA3 (human) = molecular target: T1, Myc-GGA3 (human); assay: co-IP; HepG2 cells transfected with Myc-GGA constructs, incubated with TCS, immunoprecipitated with anti-Myc antibody; TCS detected by blot
Myc-GGA1 (human) = molecular target: T2, Myc-GGA1 (human); assay: as above
[1] = molecular target: T3, GST-GGA3 VHS domain (human); assay: pull-down; GST-tagged GGA3 domains on glutathione beads; bound TCS detected by immunoblotting with TCS antibody; the source of TCS in this experiment is not told
[2] = molecular target: GST-TCS fusion protein (Trichosanthes kirilowii Maximowicz); assay: pull-down; GST-TCS or GST-TCS (LL/AA) on glutathione agarose beads, incubated with purified 6xHis-tagged GGA proteins; bound GGAs detected with anti-His antibodies and quantified; both purified
[3] = molecular target: GST-TCS (LL/AA) (Trichosanthes kirilowii Maximowicz); assay: as above
[4] = molecular target: GST-TCS fusion protein (Trichosanthes kirilowii Maximowicz); assay: pull-down; GST or GST-TCS on glutathione agarose beads, incubated with lysates of HepG2 cells transfected with Myc-GGA plasmids, 2 hours at 4 °C; detected with anti-myc antibody; only the target purified

Row | Molecule | binding [2] | binding [4] | also measured
1 | Trichosanthin (Trichosanthes kirilowii Maximowicz) | – | – | binding (Myc-GGA3 (human)): binds; binding (Myc-GGA1 (human)): binds; binding [1]: binds
2 | B1 | binds | – | –
3 | B2 | binds | – | binding [3]: binds weakly
4 | B3 | – | binds | –
5 | B4 | – | binds | –
